Reference: PubChem BioAssay AID504791 (Drosophila RNAi Screening Center, 2011)

Assay: 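Factors in Argonaute-based small RNA production and activity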 (primary screen)
System: Drosophila S2-derived reporter cells
Reagent: long dsRNA against Drosophila genes, about 150-250 ng dsRNA per well (siRNA assay); about 80-120 ng (miRNA assay)
Timing: about 5 days (siRNA assay); about 4 days (miRNA assay)
Treatment: copper sulfate induction of reporters: 25 µM (siRNA assay); 200 mM stated (miRNA assay), 1-2 days before reading
Detection: 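Dual luciferase assay: Renilla to firefly signal ratio in each well, scaled to the mean ratio of its plate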
Hit rule: 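First-pass picks had plate-scaled ratios over 1.5 for the siRNA assay, over 1.6 for the miRNA assay, or under 0.6; two distinct dsRNAs had to score alike on retest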
The deposit covers about 23,000 reagents; shown is an unselected part of those that have a named target and a result. Over the whole deposit, 199 (0.86%) got an active call. 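Plate-scaled ratios behind the calls are not deposited; printed light signals are raw; many rows marked increased or decreased are still called inactive.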 A number with no mark means an inactive call. Reagents against one gene are numbered here. A plus sign joins genes that one reagent is predicted to hit. Reagent sequences are not shown. Not stated in the record: the direction of the score.

target	reagent no.	stable siRNA reporter change	miRNA reporter change	stable assay Renilla, run 1 (luminescence)	stable assay firefly, run 1 (luminescence)
nan (nanchung)	1			7519	3.90e5
TotB (Turandot B)	1			7110	2.76e5
CG3534	1			7466	3.75e5
t-Grip91 (testis-specific gamma-tubulin ring protein 91)	1			5259	3.81e5
CG34326 (retired record)	1			5115	3.73e5
lectin-29Ca	1			6947	3.60e5
Ptp36E (Protein tyrosine phosphatase 36E)	1			7482	5.04e5
spag4 (sperm-associated antigen 4)	1			7094	3.55e5
CG10195	1			6519	3.76e5
E5	1			4108	3.80e5
E5	2			5559	2.06e5
E5	3			4175	3.04e5
beat-Vc (beaten path Vc)	1			4292	3.87e5
beat-Vc (beaten path Vc)	2			6171	4.37e5
Mal-A5 (Maltase A5)	1			8427	5.18e5
CG9706	1			6675	2.72e5
ppk24 (pickpocket 24)	1			6983	4.63e5
CG11298	1			7618	4.82e5
elB (elbow B)	1			5372	3.82e5
elB (elbow B)	2			6227	4.25e5
Idgf1 (Imaginal disc growth factor 1)	1			54786	1.28e6
CG33552	1			6007	4.95e5
dpy (dumpy)	1			3275	2.60e5
dpy (dumpy)	2			4315	2.62e5
dpy (dumpy)	3			8500	4.29e5
Lrr47 (Leucine-rich repeat 47)	1	reporter ratio lowered past the hit cutoff	reporter ratio lowered past the hit cutoff	7454	7.79e5
Ser (Serrate)	1			6630	3.58e5
CG2955	1			3.06e5	7.70e5
CG10561	1			86776	1.15e6
CG5937	1			6492	3.13e5
Dronc (Death regulator Nedd2-like caspase)	1			9362	6.09e5
CG30151	1			6450	4.76e5
CG3014	1			7267	3.95e5
Coq7 + shf	1			6327	3.54e5
CG11696	1			8418	6.11e5
rig (rigor mortis)	1			7610	3.13e5
rig (rigor mortis)	2	reporter ratio lowered past the hit cutoff		3779	4.89e5
Dus3 (Dihydrouridine synthase 3)	1			6140	3.81e5
eIF1 (eukaryotic translation initiation factor 1)	1			4947	3.07e5
CG14440	1			4067	1.93e5
CG14440	2			4248	3.49e5
CG14440	3			3051	2.83e5
wun (wunen)	1			6814	4.33e5
Mms19	1			9408	5.93e5
CG13040	1			7666	4.64e5
Br140 (Bromodomain-containing protein, 140kD)	1			14451	1.34e6
CG9098	1			27307	3.09e5
CG9098	2			3360	3.52e5
RhoGAP16F (Rho GTPase activating protein at 16F)	1			7722	4.08e5
eIF4EHP	1			3399	2.66e5
eIF4EHP	2			7190	3.40e5
CG31459	1			4839	3.16e5
CG33107	1			9984	6.52e5
Pos (Poseidon)	1			6398	4.22e5
CG13502	1			6366	3.51e5
CG7029	1		reporter ratio lowered past the hit cutoff	7456	3.03e5
Muc12Ea (Mucin 12Ea)	1			6035	5.51e5
Rpt6R (Regulatory particle triple-A ATPase 6-related)	1			6056	4.19e5
CG9518	1	reporter ratio raised past the hit cutoff		5366	2.69e5
daed (daedalus)	1			10747	5.61e5
CG42579	1			4395	4.09e5
CG13917	1			3511	4.10e5
Sec23 (Secretory 23)	1			4511	3.37e5
Rep (Rab escort protein)	1			8191	3.15e5
Or85d (Odorant receptor 85d)	1			6615	3.90e5
Ccdc114 (Coiled-coil domain containing protein 114)	1			7981	4.78e5
HP5 (Heterochromatin protein 5)	1			7578	5.05e5
CG31473	1			6934	4.50e5
Gr43a (Gustatory receptor 43a)	1			6231	3.97e5
CG17564	1			7546	4.36e5
Cyp6t2Psi (pseudo)	1			6747	6.09e5
Met75Ca + Met75Cb	1			5047	4.83e5
Met75Ca + Met75Cb	2			7218	3.57e5
CG17672	1			2792	2.08e5
CG17672	2			7822	5.04e5
CR15821 (pseudo)	1			6546	2.98e5
CG17219	1	reporter ratio lowered past the hit cutoff		7656	7.11e5
CG42560 + CG42559	1			8308	5.62e5
CG9284 (retired record)	1			5699	4.84e5
CG9284 (retired record)	2			1.88e5	2.68e5
boly (borrelly)	1			7909	3.64e5
CG17129	1			10433	4.98e5
Cpr47Ed (Cuticular protein 47Ed)	1			6911	4.34e5

Records above whose gene name begins with S or s:
target	reagent no.	stable siRNA reporter change	miRNA reporter change	stable assay Renilla, run 1 (luminescence)	stable assay firefly, run 1 (luminescence)
spag4 (sperm-associated antigen 4)	1			7094	3.55e5
Ser (Serrate)	1			6630	3.58e5
Sec23 (Secretory 23)	1			4511	3.37e5
